Measurements published in PubChem BioAssay AID1477 (National Center for Advancing Translational Sciences (NCATS), 2009).
Hit rate of the full screen: of about 230,000 compounds, fewer than 10 were called active. Only results without a clear call are listed here; the source files them as inconclusive. Calls follow the shape of the dose curve; as a rule, active = well fitted curve in the direction sought with a large enough effect; inconclusive = small, poorly fitted or top-dose-only effect, or effect the other way, or another doubt; inactive = no such curve, though single readings can be large or run the other way.

Amino acid sequences for entries named in this document (tags omitted).
UniProt Q01196, whole entry partner: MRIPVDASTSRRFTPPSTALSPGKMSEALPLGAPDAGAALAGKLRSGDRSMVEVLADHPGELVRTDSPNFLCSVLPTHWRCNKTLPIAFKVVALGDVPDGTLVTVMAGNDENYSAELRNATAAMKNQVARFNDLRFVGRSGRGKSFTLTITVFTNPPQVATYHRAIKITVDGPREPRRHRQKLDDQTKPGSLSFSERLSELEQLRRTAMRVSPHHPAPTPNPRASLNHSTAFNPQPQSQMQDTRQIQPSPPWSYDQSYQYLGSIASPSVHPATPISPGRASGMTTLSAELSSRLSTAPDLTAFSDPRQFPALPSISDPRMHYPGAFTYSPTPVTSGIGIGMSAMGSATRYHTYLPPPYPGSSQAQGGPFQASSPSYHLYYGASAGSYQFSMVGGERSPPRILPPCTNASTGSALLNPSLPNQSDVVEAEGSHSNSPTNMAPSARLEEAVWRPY
UniProt Q13951, whole entry: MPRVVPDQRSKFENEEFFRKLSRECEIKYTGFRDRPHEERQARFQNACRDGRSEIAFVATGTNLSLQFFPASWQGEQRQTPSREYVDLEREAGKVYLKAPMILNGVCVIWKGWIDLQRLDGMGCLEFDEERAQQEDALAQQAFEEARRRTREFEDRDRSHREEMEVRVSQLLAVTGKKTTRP

Target: Runt-related transcription factor 1 (Homo sapiens) + Core-binding factor subunit beta (Homo sapiens) (UniProt Q01196+Q13951)
Experiment: qHTS Assay for Compounds Blocking the Interaction Between CBF-beta and RUNX1 for the Treatment of Acute Myeloid Leukemia
Settings: AlphaScreen CBFb-His/RUNX1-biotin binding, biochemical

SMILES | Potency
CCOC(=O)c1ccc(NP(C)(=O)Oc2ccc(F)cc2)cc1 (configuration not stated) | inconclusive: 35.5 µM
CC1=NCCc2c1[nH]c1ccccc21.O=[N+]([O-])c1cc([N+](=O)[O-])c(O)c([N+](=O)[O-])c1 | inconclusive: 17.8 µM
